Measurements as given in patent US5057521A, “Use of bicyclic imidazole compounds for the treatment of hyperaldosteronism” (Ciba-Geigy Corporation, priority 1988, dated 1991).

Tested on: ACTH-induced aldosterone production in the adrenals of rats or mice
Assay: cells
Conditions: 2 h, read-out: IC50 of inhibition of ACTH-induced aldosterone production

N#Cc1ccc(C2CCCc3cncn32)cc1 (racemic) [5-(p-cyanophenyl)-5,6,7,8-tetrahydroimidazo[1,5-a]pyridine]
IC50: 1000 nM
